Laboratory results from US20240361338A1, “DIAGNOSIS AND TREATMENT OF ECTOPIC ENDOMETRIOSIS” (FERRING B.V., priority 2021, published 2024).
At least one compound was matched to its structure with a doubt left.

System: ectopic E-MSCs
Test: Endothelial differentiation (CD31) of ectopic E-MSCs in co-culture with HUVECs
Assay type: cell-based, human
Settings: 1 μM, 24 h treatment, 48 h co-culture with HUVECs
Procedure: FIG. 5: Quinagolide effect on EMSCs endothelial differentiation. A. FACS gating-strategy for the analysis of CD31^+ EMSCs after direct 48 h co-culture with HUVECs. EMSCs are gated as GFP negative population, and CD31 expression is evaluated on the described gated EMSCs after 48 h co-culture with HUVECs as percentage of CD31 APC positive events. B, C and D: Representative flow cytometry micrographs and quantification, expressed as percentage of variation respect to control co-culture, of the effect of 24 h treatment of EMSCs with 25 μM cabergoline, 1 μM sorafenib, 1 μM cabozantinib (B), 100 nM quinagolide (C) and the combination of 5 μM spiperone and 100 nM quinagolide (D) on EMSCs CD31 expression after 48 h of co-culture with HUVECs. Data are represented as mean±SD of at least three independent experiments, performed on different ectopic EMSC lines, and normalized to untreated co-culture. One-way ANova was performed: *=p<0.05 and ***=p<0.001 vs control.
(BSA)-Phosphate Buffered Saline (PBS) (Sigma). […]

SMILES: CCN(CC)CCNC(=O)c1c(C)[nH]c(/C=C2\C(=O)Nc3ccc(F)cc32)c1C [sunitinib]
- endothelial differentiation (CD31 expression) of E-MSCs: did not affect
